In PMC7132798:
No constants are given. Whether binding was seen depends on the method and setting. Binding seen in cells or lysates may run through a third protein. Some binding calls cover weakened binding; strength is not graded here. Sequences can lack the tags named with a protein.

Protein sequences, listed by entry. Tags and fused reporters are not part of them.
UniProt Q6PB44: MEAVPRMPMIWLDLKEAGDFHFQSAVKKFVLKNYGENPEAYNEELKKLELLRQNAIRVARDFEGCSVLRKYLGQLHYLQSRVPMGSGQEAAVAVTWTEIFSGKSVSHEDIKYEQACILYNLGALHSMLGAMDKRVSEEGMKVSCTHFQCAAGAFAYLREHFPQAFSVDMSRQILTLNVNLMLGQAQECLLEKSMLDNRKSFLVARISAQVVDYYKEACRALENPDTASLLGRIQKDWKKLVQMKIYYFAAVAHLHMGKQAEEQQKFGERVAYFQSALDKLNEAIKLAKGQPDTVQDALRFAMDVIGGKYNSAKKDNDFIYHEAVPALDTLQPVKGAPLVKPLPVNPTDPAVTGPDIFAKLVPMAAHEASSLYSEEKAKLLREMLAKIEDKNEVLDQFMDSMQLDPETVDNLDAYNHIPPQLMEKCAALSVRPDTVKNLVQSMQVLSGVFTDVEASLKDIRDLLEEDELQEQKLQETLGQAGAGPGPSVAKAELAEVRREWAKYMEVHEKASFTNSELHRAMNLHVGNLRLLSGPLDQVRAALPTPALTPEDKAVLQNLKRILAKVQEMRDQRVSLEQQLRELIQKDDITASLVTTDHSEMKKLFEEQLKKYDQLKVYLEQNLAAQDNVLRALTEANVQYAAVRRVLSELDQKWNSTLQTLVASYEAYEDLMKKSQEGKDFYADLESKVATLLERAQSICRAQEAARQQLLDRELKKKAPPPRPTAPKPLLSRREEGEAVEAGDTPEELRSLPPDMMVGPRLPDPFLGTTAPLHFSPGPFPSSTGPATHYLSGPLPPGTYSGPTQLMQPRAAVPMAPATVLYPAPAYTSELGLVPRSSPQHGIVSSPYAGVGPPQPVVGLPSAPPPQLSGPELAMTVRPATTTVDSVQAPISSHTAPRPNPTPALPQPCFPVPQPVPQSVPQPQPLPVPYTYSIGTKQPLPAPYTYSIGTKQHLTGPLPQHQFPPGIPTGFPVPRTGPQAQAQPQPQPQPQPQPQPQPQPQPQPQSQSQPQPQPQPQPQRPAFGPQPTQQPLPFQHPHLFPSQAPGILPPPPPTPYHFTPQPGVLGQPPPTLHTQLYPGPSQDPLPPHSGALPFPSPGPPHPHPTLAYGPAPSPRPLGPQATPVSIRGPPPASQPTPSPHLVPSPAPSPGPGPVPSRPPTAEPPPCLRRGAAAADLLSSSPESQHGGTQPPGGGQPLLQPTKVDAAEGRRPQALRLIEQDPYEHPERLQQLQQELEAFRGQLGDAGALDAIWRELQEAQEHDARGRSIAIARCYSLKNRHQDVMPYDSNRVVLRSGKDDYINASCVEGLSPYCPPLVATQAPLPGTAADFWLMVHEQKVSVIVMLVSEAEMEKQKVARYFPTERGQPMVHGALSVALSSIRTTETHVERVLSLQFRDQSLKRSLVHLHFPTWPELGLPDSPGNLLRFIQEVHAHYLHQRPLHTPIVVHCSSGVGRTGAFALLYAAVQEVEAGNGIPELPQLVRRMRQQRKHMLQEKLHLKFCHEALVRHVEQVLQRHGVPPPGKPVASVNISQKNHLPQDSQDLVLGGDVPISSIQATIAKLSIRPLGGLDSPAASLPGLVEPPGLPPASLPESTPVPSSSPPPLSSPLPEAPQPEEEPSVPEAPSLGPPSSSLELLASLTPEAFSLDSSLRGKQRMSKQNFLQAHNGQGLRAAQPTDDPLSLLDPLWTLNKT

Biological target: T1, Bicaudal-D1 (BICD1), endogenous (mouse (endogenous in N2A-FLAG-TrkB cells and ES-MNs)) (UniProt Q8BR07)
T1 sequence: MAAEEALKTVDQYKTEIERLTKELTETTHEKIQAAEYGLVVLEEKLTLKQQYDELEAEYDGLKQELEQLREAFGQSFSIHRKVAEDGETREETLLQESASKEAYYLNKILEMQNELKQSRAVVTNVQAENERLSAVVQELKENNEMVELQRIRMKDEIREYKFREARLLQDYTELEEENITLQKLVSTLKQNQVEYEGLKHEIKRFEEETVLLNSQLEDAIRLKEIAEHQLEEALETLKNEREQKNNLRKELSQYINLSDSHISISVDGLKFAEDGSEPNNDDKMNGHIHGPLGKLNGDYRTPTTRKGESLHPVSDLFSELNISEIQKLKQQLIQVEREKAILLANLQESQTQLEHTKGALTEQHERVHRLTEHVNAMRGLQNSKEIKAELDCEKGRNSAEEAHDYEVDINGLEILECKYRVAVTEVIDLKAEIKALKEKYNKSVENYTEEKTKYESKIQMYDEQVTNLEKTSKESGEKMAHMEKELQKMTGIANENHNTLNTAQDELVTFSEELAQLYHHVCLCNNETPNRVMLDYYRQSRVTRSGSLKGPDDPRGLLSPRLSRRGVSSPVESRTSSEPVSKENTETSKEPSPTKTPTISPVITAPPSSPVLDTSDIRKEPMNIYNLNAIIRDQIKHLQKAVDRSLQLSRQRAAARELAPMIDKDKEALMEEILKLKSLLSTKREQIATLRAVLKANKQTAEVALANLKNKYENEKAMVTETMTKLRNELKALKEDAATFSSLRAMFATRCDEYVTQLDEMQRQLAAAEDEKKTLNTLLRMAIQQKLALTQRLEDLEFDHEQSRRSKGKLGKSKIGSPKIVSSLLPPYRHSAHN
Assay: co-IP; anti-BICD1 polyclonal antibody or rabbit IgG on Protein-G magnetic beads; N2A-FLAG-TrkB lysate in 0.4% NP-40 lysis buffer, 2 h at 4°C; blots for PTPN23 and BICD1

protein tyrosine phosphatase, non-receptor type 23 (PTPN23), endogenous (from UniProt Q6PB44 1-1692)
binding: binds
